{
  "source": "patent US12661369B2",
  "about": "“Muscular atrophy inhibitor and method for inhibiting muscular atrophy” (YAMASA CORPORATION, priority 2020, dated 2026)",
  "type_in_all_cases": "cell-based, Mouse",
  "key": {"[1]": {"test_system": "C2C12 cells differentiated into myotube cells", "assay": "Dexamethasone-induced myotube atrophy in C2C12 cells, myotube cell diameter (Example 1-1)", "details": "100 μM dexamethasone alone vs medium without dexamethasone", "procedure": "(§1) Mouse myoblast cell line C2C12 cells (RIKEN BRC, RCB0987) were suspended in growth medium (Dulbecco's modified Eagle's Medium supplemented with 10% FBS, 100 units/ml of penicillin, 100 μg/ml of streptomycin), seeded in 24-well plates, and incubated in a 37° C., 5% C02 incubator until the cell density reached 70-90%.\n(§2) The growth medium was removed, and exchanged to a differentiation induction medium (Dulbecco's modified Eagle's Medium supplemented with 2% adult bovine serum, 100 units/ml of penicillin, 100 μg/ml of streptomycin). The cells were cultured for 4 days while exchanging the medium once every 2 days and differentiated into myotube cells. […]\nAfter 24 hours, the medium was changed again. […] Using ImageJ image analysis software, the diameters of 10 myotube cells per a photograph were measured in the order from the myotube cell having the largest diameter, and an average of 50 cells was determined to be the diameter of the myotube cell in each well. […]"}, "[2]": {"test_system": "C2C12 cells differentiated into myotube cells", "assay": "Dexamethasone-induced myotube atrophy in C2C12 cells, myotube cell diameter (Example 1-2, also used for Examples 2 and 3)", "details": "Examples 1-2, 2, 3; 100 μM dexamethasone alone vs Dex (−)", "procedure": "as §1, with “CO2” for “C02”\nas §2\nAfter culturing the cells for 3 days, five positions near the center of the wells were photographed at magnifications of 100. Using ImageJ image analysis software, the diameters of 10 myotube cells per a photograph were measured in the order from the myotube cell having the largest diameter, and an average of 50 cells was determined to be the diameter of the myotube cell in each well. […]\nSimilarly, the effect of the combination of cytidine and uridine were also evaluated."}, "Atrogin-1": {"test_system": "Atrogin-1", "assay": "Atrogin-1 mRNA expression in dexamethasone-treated C2C12 myotube cells (Example 4)", "details": "1 μM dexamethasone alone, 24 hours", "procedure": "(§3) Mouse myoblast cell line C2C12 cells were suspended in growth medium, seeded in 24-well plates, and incubated in a 37° C., 5% C02 incubator until the cell density reached 70-90%. The growth medium was removed, and exchanged to a differentiation induction medium. The cells were cultured for 6 days while exchanging the medium once every 2 days and differentiated into myotube cells. The medium was removed and exchanged to a differentiation induction medium or a differentiation induction medium containing a test substance. After 48 hours, the medium was removed and replaced with a differentiation induction medium, a differentiation induction medium supplemented only with 1 μM dexamethasone, or a medium supplemented with 1 μM dexamethasone and test substances (a certain amount of UMP (disodium uridylate), a certain amount of Urd (uridine), and […]).\n(§4) After 24 hours, the medium was removed and total RNA was extracted from the cells using RNeasy Mini kit (QIAGEN) or NucleoSpin RNA (Takara Bio).\n(§5) Using the total RNA as a template, a reverse transcription reaction solution was prepared using the ReverTra Ace(R) qPCR RT Kit (Toyobo). […] Analysis was performed by relative quantification, and mRNA expression levels were corrected using the β-actin mRNA expression level as an endogenous control. […]"}, "MuRF1": {"test_system": "MuRF1", "assay": "MuRF1 mRNA expression in dexamethasone-treated C2C12 myotube cells (Example 4)", "details": "1 μM dexamethasone alone, 24 hours", "procedure": "as §3, §4, §5"}},
  "note": "At least one compound was matched to its structure with a doubt left.",
  "data": [
    {"molecule": "C[C@@H]1C[C@H]2[C@@H]3CCC4=CC(=O)C=C[C@]4(C)[C@@]3(F)[C@@H](O)C[C@]2(C)[C@@]1(O)C(=O)CO", "note": "[dexamethasone, reference compound]", "values": [
      {"measurement": "myotube cell diameter", "setting": "[1]", "result": "reduced"},
      {"measurement": "myotube cell diameter", "setting": "[2]", "result": "reduced"},
      {"measurement": "mRNA expression level of Atrogin-1", "setting": "Atrogin-1", "result": "increased"},
      {"measurement": "mRNA expression level of MuRF1", "setting": "MuRF1", "result": "increased"}
    ]}
  ]
}
